The target of one experiment is PDE2A2-GFP. As to the kind of experiment: co-IP; HEK293T cells transiently transfected; RIPA lysate; 2 h at 4 °C with anti-RFP/GFP beads (Chromotek) or anti-FLAG M2 beads; washed with Tris-HCl 0.1 M, NaCl 0.3 M, Triton X-100 1%, pH 7.5; Western blot.
A further experiment concerns the target PDE2A2-RFP. Described as above.

No constants are given. Whether binding was seen depends on the method and setting. Binding seen in cells or lysates may run through a third protein. Binding calls can cover weak binding; strength is not graded here. For some assays here: Tags and fused reporters may be left off the sequences shown.

B1: endogenous SAMM50 (HEK293T) (protein, UniProt Q9Y512 1-469)
chain: MGTVHARSLEPLPSSGPDFGGLGEEAEFVEVEPEAKQEILENKDVVVQHVHFDGLGRTKDDIIICEIGDVFKAKNLIEVMRKSHEAREKLLRLGIFRQVDVLIDTCQGDDALPNGLDVTFEVTELRRLTGSYNTMVGNNEGSMVLGLKLPNLLGRAEKVTFQFSYGTKETSYGLSFFKPRPGNFERNFSVNLYKVTGQFPWSSLRETDRGMSAEYSFPIWKTSHTVKWEGVWRELGCLSRTASFAVRKESGHSLKSSLSHAMVIDSRNSSILPRRGALLKVNQELAGYTGGDVSFIKEDFELQLNKQLIFDSVFSASFWGGMLVPIGDKPSSIADRFYLGGPTSIRGFSMHSIGPQSEGDYLGGEAYWAGGLHLYTPLPFRPGQGGFGELFRTHFFLNAGNLCNLNYGEGPKAHIRKLAECIRWSYGAGIVLRLGNIARLELNYCVPMGVQTGDRICDGVQFGAGIRFL
In the case of B1, the binding entry with PDE2A2-GFP is “binds”.

B2: SAMM50-FLAG (protein, UniProt Q9Y512 1-469)
chain: B1 chain
Take B2: the binding entry in the experiment with PDE2A2-RFP is listed as “binds”.

The values are drawn from publication PMC7578833.
